In patent US20200239541A1:
Results are given in words; binding and its absence hold for the method and conditions named. Some entries that bind do so weakly or less than the wild type. Sequences can lack the tags named with a protein.

Tests used:
Fc-NKG2D.Y152A (human) [1] = assay: BLI (Octet), ligands captured on AHC tips
[2] = biological target: Fc-eNKG2D5 (Y152A/Y199F) (human); assay: BLI (Octet), ligands captured on AHC tips
Fc-NKG2D.Y152A (human) [3] = assay: ELISA and Octet, monomeric His-tagged format
murine NKG2D-Fc (murine) = biological target: T1, murine NKG2D-Fc (murine) (UniProt O54709); assay: competition ELISA with murine NKG2D-Fc
T1 sequence (looked up): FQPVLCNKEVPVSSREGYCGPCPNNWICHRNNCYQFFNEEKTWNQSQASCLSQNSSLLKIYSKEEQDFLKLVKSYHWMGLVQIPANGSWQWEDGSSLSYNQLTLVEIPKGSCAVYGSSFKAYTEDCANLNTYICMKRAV

B1: MICA-Fc (R&D Systems) (Fc fusion, human, UniProt Q29983 24-308, looked up, not shown: a dimerising Fc or GST)
chain: EPHSLRYNLTVLSWDGSVQSGFLTEVHLDGQPFLRCDRQKCRAKPQGQWAEDVLGNKTWDRETRDLTGNGKDLRMTLAHIKDQKEGLHSLQEIRVCEIHEDNSTRSSQHFYYDGELFLSQNLETKEWTMPQSSRAQTLAMNVRNFLKEDAMKTKTHYHAMHADCLQELRRYLKSGVVLRRTVPPMVNVTRSEASEGNITVTCRASGFYPWNITLSWRQDGVSLSHDTQQWGDVLPDGNGTYQTWVATRICQGEEQRFTCYMEHSGNHSTHPVPSGKVLVLQSHWQ
In the case of B1, the binding (Fc-NKG2D.Y152A (human) [1]) is reported as “binds” and the binding [2] is reported as “binds”.

B2: ULBP2.S3, monomeric His-tagged (ligand, not shown: small tags and cut ends)
chain: AAEPHSLSYDITVIPKFRPGPRWCAVQGQVDEKTFLHYDCGNKTVTPVSPLGKKLNVTTAWKAQNPVLREVVDILTEQLWDIQLENYTPKEPLTLQARMSCEQKAEGHSSGSWQFSFDGQIFLLFDSEKRMWTTVHPGARKMKEKWENDKVVATKLYLWSMGDCIGWLEDFLMGMDSTLEPSAGAP
For B2, the binding (Fc-NKG2D.Y152A (human) [3]) was “binds”.

B3: WT α1-α2 domain (soluble wild-type MICA, titrated) (ligand, UniProt Q29983 24-204, looked up)
chain: EPHSLRYNLTVLSWDGSVQSGFLTEVHLDGQPFLRCDRQKCRAKPQGQWAEDVLGNKTWDRETRDLTGNGKDLRMTLAHIKDQKEGLHSLQEIRVCEIHEDNSTRSSQHFYYDGELFLSQNLETKEWTMPQSSRAQTLAMNVRNFLKEDAMKTKTHYHAMHADCLQELRRYLKSGVVLRRT
With B3 the binding (murine NKG2D-Fc (murine)) was “binds”.
